Laboratory results taken from patent publication US20200283507A1.

B1: VHH 3.2 (VHH)
VHH: QVQLQESGGGLVQPGGSLRLSCAASESTPSINTMGWYRQAPGKERELVATITSGGMTNYADSVKGRFTISRDNGKNTVYLQMNSLEPGDTAVYYCNLKRRDLQARFGGYWGQGTQVTVSS
B2: VHH 14.5 (VHH)
VHH: DVQLQASGGGLVQAGGSLRLSCVASARTFSSYAMGWFRQAPGKEREFVAAISWSGASTDYADSVKGRFTISRDNAKKTVYLQMNTLKPEDTAVYYCAAHHITPTGSYYYSEPLPVDMVYDYWGQGTQVTVSS
B3: VHH 6.3 (VHH)
VHH: QVQLQQSGGGLVQPGGSLRLSCAASGSIFSIHTMGWYRQAPGKQRELVTTITTGGTTNYADSVKGRFTISRDDAKNTVYLQMNNLKPEDTAVYYCYALIQTASTTWYRQYWGQGTQVTVSS
B4: VHH 1 (VHH)
VHH: QVQLQQSGGGLVQAGGSLRLSCAASGLAFSSYAITWLRQAPGTEREFVALISGSGSSTYYADSVKGRFTISRNNAKNTVYLQMNSLKPEDTAVYYCTASEFLLHPPPPNQKYDYWGQGTQVTVSS
B5: VHH 7.5 (VHH)
VHH: QVKLQESGGGLVQAGESLRLSCAASGSNFSINGVGWYRQAPGKQRELVAGITNGGYTSYADSVKGRFTISTDNAKNTVYLQMNSLRPEDTAVYYCNANFQIHRSGADYVRNYWGQGTQVTVSA
B6: VHH 2.1 (VHH)
VHH: QVQLQESGGGLVQAGGSLRLSCAASGLTFSSYAMGWFHQAPGKEREFVAAINWSGRDTYYADSVKGRFTISRDNRKNTVYLQMNSLKPEDTAVYYCAAAEFFSSGDPLPGMDYWGKGTLVTVSS
B7: VHH 4.1 (VHH)
VHH: QVKLQQSGGGLVQPGGSLRLSCAASESTISINTLGWYRQAPGNQRELVATITTGGTTNYADSVKGRFTISRDNAKNTVYLQMNNLEPGDTAVYYCNLKRRDLQSRFGGYWGQGTQVTVSS
B8: VHH 5.4 (VHH)
VHH: B7 VHH with K3Q, A23V, I29V, T33I, L34M, N43K, N84S, G88E, S104A
B9: VHH 7.3 (VHH)
VHH: QVKLQESGGGLVQPGGSLRLSCTASRSIFTRAMAWYRQAPGKQRELVAAIDSGDRTHYADSVKGRFTISRNNAKDTLYLQMNSLKSEDTAVYYCNANLGALLDYWGQGTQVTVSS
B10: VHH 11.2 (VHH)
VHH: DVQLQASGGGLVQAGGSLRLSCAASTSRFSSYAMGWSRQAPGKQRELVASISSSGLTTNYADSVKGRFTISRDNAKNTVYLQMNSLKPEDTAVYYCKADGRRYSLNEYWGQGTQVTVSS
B11: VHH 8.1 (VHH)
VHH: QVKLQESGGGLVQAGGSLRLSCAASGFTFATYAMAWYRQAPGKQRELVASISNFGSTAYGDSVKGRFTISRDNAKNTVYLEMNSLKSEDTAVYYCKRVRDVIGRPELWGQGTQVTVSS
B12: VHH 12.2 (VHH)
VHH: DVQLQASGGGLVQAGGSLRLSCAASGSTISSYAMAWYRQAPGKRRELVAHISSGGSTNYADSVKGRFTISRDNAKNTVYLQMNSLKPEDTAVYYCNIYYGGDYYYTGVKPNPWGQGTQVTVSS
B13: VHH 19 (VHH)
VHH: QVKLQQSGGGLVQPGGSLRLSCAASGFTFRNYAMSWVRQAPGKGLEWVSAIAAGGAVTKYADSVKGRFTISRDNARDTLYLQMNSLKPEDTAVYYCAKPRDFWYSPEFDFRGQGTQVTVSS
B14: VHH 16 (VHH)
VHH: QVKLQQSGGGLVQPGGSLRLTCAASGFPFSTYAIRWVRRPPGKGLEWVSTIHPDFTTNYADSVSRRFTISRDNAKNTVYLQMNSLKPEDTAVYYCSRGVSGERGQGTQVTVSS
B15: VHH 13.1 (VHH)
VHH: QVKLQESGGGWVQAGGSLRLSCAASALTASITTMGWFRQTPEKEREFLAAINWTGDYKYYADSVKGRFTISRDNAKNTVDLQMNQLKPEDTAVYYCAASKIRNDIYLNDYTWYQYWGQGTQVTVSS

target: Hu/NoV/GI.6/Hesse/1997/GE VLP (human norovirus GI.6); test: VLP ELISA

Binder | binding
B1 | no binding
B2 | no binding
B3 | no binding
B4 | no binding
B5 | no binding
B6 | no binding
B7 | no binding
B8 | no binding
B9 | no binding
B10 | no binding
B11 | no binding
B12 | no binding
B13 | no binding
B14 | no binding
B15 | no binding

target: Hu/NoV/GII.2/Henryton/1971/U.S. VLP (human norovirus GII.2); test: VLP ELISA

Binder | binding
B1 | no binding
B2 | no binding
B3 | no binding
B4 | no binding
B5 | binds
B6 | no binding
B7 | binds
B8 | binds
B9 | no binding
B10 | no binding
B11 | no binding
B12 | no binding
B13 | binds
B14 | no binding
B15 | no binding

target: Hu/NoV/Snow Mountain/GII.2/U.S. VLP (human norovirus GII.2); test: VLP ELISA

Binder | binding
B1 | no binding
B2 | no binding
B3 | no binding
B4 | no binding
B5 | binds
B6 | no binding
B7 | binds
B8 | binds
B9 | no binding
B10 | no binding
B11 | no binding
B12 | no binding
B13 | binds
B14 | no binding
B15 | no binding

target: Hu/NoV/GII.1/Hawaii/1971/U.S. VLP (human norovirus GII.1); test: VLP ELISA

Binder | binding
B1 | no binding
B2 | no binding
B3 | no binding
B4 | no binding
B5 | binds
B6 | no binding
B7 | binds
B8 | binds
B9 | no binding
B10 | no binding
B11 | no binding
B12 | no binding
B13 | binds
B14 | no binding
B15 | no binding

target: Hu/GII.6/Bethesda/2012/U.S. VLP (human norovirus GII.6); test: VLP ELISA

Binder | binding
B1 | binds
B2 | no binding
B3 | no binding
B4 | no binding
B5 | binds
B6 | no binding
B7 | binds
B8 | binds
B9 | no binding
B10 | no binding
B11 | no binding
B12 | no binding
B13 | binds
B14 | no binding
B15 | no binding

target: Hu/NoV/GII.3/Maizuru/2000/JP VLP (human norovirus GII.3); test: VLP ELISA

Binder | binding
B1 | no binding
B2 | no binding
B3 | no binding
B4 | no binding
B5 | binds
B6 | no binding
B7 | binds
B8 | binds
B9 | no binding
B10 | no binding
B11 | no binding
B12 | no binding
B13 | binds
B14 | no binding
B15 | no binding

target: Hu/NoV/GII.7/DC119/U.S. VLP (human norovirus GII.7); test: VLP ELISA

Binder | binding
B1 | no binding
B2 | no binding
B3 | no binding
B4 | no binding
B5 | binds
B6 | no binding
B7 | binds
B8 | binds
B9 | no binding
B10 | no binding
B11 | no binding
B12 | no binding
B13 | binds
B14 | no binding
B15 | no binding

target: MD2004 VP1 mutant V389I (human norovirus GII.4); test: immunofluorescence on Vero cells

Binder | binding
B14 | binds

target: MD2004 VP1 mutant at amino acid 294 (human norovirus GII.4); test: immunofluorescence on Vero cells

Binder | binding
B14 | binds

target: MD2004 VP1 mutant G340A (human norovirus GII.4); test: immunofluorescence on Vero cells

Binder | binding
B14 | no binding

target: MD2004 VP1 mutant E376Q (human norovirus GII.4); test: immunofluorescence on Vero cells

Binder | binding
B14 | no binding

target: MD2004 VP1 mutant N368T (human norovirus GII.4); test: immunofluorescence on Vero cells

Binder | binding
B14 | binds

target: MD2004 VP1 double mutant G340A/E376Q (human norovirus GII.4); test: ELISA on mutant VLP

Binder | binding
B1 | binds
B4 | binds
B5 | binds
B6 | binds
B7 | binds
B8 | binds
B13 | binds

target: MD2004 VP1 double mutant G340A/E376Q (human norovirus GII.4); test: immunofluorescence on Vero cells; ELISA on mutant VLP

Binder | binding
B14 | no binding

Substitutions are numbered along the chain they refer to. Results are given in words; binding and its absence hold for the method and conditions named. For some of these results: Binding calls can cover weak binding; strength is not graded here.
